Protein sequences, listed by entry. Tags and fused reporters are not part of them.
UniProt P27782, whole entry: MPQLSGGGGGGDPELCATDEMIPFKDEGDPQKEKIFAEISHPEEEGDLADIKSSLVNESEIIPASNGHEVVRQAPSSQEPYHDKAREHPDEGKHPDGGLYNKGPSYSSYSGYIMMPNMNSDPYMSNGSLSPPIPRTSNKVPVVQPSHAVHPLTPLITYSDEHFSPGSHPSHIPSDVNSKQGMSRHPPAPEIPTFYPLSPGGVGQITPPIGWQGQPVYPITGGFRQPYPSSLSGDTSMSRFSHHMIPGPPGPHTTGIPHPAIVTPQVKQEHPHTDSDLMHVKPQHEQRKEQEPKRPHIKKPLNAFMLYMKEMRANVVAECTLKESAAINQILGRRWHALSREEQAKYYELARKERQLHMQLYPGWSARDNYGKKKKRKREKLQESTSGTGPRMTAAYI

According to publication PMC2664482:

Experiments:
[1] = molecular target: LEF-1 (endogenous, N2a-m nuclear extract) (UniProt P27782); test: competition with a labelled probe; settings: LEF-1 identity of the complex from the supershift, EMSA: 20 ug nuclear protein, 30 min RT, 60-65 mM KCl final, poly dIdC 1 mg/ml, CHAPS 20%, 4.5% acrylamide gel, extract buffer 20 mM Tris pH 7.5, 400 mM NaCl, protein in an extract
[2] = molecular target: LEF-1 (endogenous, N2a-m nuclear extract) (UniProt P27782); test: EMSA supershift; settings: anti-LEF-1 antibody, EMSA: 20 ug nuclear protein, 30 min RT, 60-65 mM KCl final, poly dIdC 1 mg/ml, CHAPS 20%, 4.5% acrylamide gel, extract buffer 20 mM Tris pH 7.5, 400 mM NaCl, protein in an extract

Row | Sequence | binding result ([1]; mutant competitor did not compete, label: unlabelled competitor) | binding result ([1]; unlabelled wt competitor, 20 and 100 ng) | binding result [2]
1 | GTCGCCCTTTGGCCTTACC / GTCGGGTAAGGCCAAAGGG [TCF/LEF mutant oligonucleotide] | no binding |  | 
2 | GTCGCCCTTTGATCTTACC / GTCGGGTAAGATCAAAGGG [TCF/LEF wt oligonucleotide] |  | binds | binds

For at least one entry, the source does not settle the construct or the ends of the probe. Where cells or extracts were used, other partners may take part. For part of these data: Negatives hold for the conditions tested. For part of these data: At least one verdict was read from the data and is not stated in words by the source.
